The source of these data is patent US20250066503A1, “CELL INJURY INDUCING THERAPEUTIC DRUG FOR USE IN CANCER THERAPY” (CHUGAI SEIYAKU KABUSHIKI KAISHA, priority 2016, published 2025).

First the molecules themselves.
B1: antibody-6: anti-human CD3ε chain and anti-human GPC3 bispecific antibody (antibody)
heavy: QVQLVESGGGVVQPGRSLRLSCAASGFTFSNAWMHWVRQAPGKGLEWVANIKAKSNNYATYYAESVKGRFTISRDDSKNSLYLQMNSLKTEDTAVYYCRYVHYGAYYGVDAWGQGTTVTVSSASTKGPSVFPLAPSSKSTSGGTAALGCLVKDYFPEPVTVSWNSGALTSGVHTFPAVLQSSGLYSLSSVVTVPSSSLGTQTYICNVNHKPSNTKVDKKVEPKSCDKTHTCPPCPAPEAAGGPSVFLFPPKPKDTLMISRTPEVTCVVVDVSHEDPEVKFNWYVDGVEVHNAKTKPREEQYASTYRVVSVLTVLHQDWLNGKEYKCKVSNKALPAPIEKTISKAKGQPREPQVYTLPPSRCELTKNQVSLSCAVKGFYPSDIAVEWESNGQPENNYKTTPPVLDSDGSFFLVSKLTVDKSRWQQGNVFSCSVMHEALHNHYTQKSLSLSPDYKDDDDK
light: DIVMTQSPLSLPVTPGEPASISCRSSQSLVHSNRNTYLHWYQQKPGQAPRLLIYKVSNRFSGVPDRFSGSGSGTDFTLKISRVEAEDVGVYYCGQGTQVPYTFGQGTKLEIKRTVAAPSVFIFPPSDEQLKSGTASVVCLLNNFYPREAKVQWKVDNALQSGNSQESVTEQDSKDSTYSLSSTLTLSKADYEKHKVYACEVTHQGLSSPVTKSFNRGEC
chain 1: DIVMTQSPLSLPVTPGEPASISCRSSQSLVHSNRNTYLHWYQQKPGQAPRLLIYKVSNRFSGVPDRFSGSGSGTDFTLKISRVEAEDVGVYYCSQNTHVPPTFGQGTKLEIKSSASTKGPSVFPLAPSSKSTSGGTAALGCLVKDYFPEPVTVSWNSGALTSGVHTFPAVLQSSGLYSLSSVVTVPSSSLGTQTYICNVNHKPSNTKVDKKVEPKSCDKTHTCPPCPAPEAAGGPSVFLFPPKPKDTLMISRTPEVTCVVVDVSHEDPEVKFNWYVDGVEVHNAKTKPREEQYASTYRVVSVLTVLHQDWLNGKEYKCKVSNKALPAPIEKTISKAKGQPREPQVCTLPPSRDELTKNQVSLWCLVKGFYPSDIAVEWESNGQPENNYKTTPPVLDSDGSFFLYSKLTVDKSRWQQGNVFSCSVMHEALHNHYTQKSLSLSPHHHHHHHH
chain 2: QVQLVQSGAEVKKPGASVKVSCKASGYTFTDYEMHWIRQPPGQGLEWIGAIDPKTGDTAYSQKFKGRVTLTADKSTSTAYMELSSLTSEDTAVYYCTRFYSYTYWGQGTLVTVSSASVAAPSVFIFPPSDEQLKSGTASVVCLLNNFYPREAKVQWKVDNALQSGNSQESVTEQDSKDSTYSLSSTLTLSKADYEKHKVYACEVTHQGLSSPVTKSFNRGEC
B2: antibody-17: optimized anti-human CD3ε chain and anti-human GPC3 bispecific antibody (antibody)
heavy 1: QVQLVESGGGLVQPGRSLRLSCAASGFTFSNAWMHWVRQAPGKGLEWVAQIKDKSQNYATYYAESVKGRFTISRADSKNSIYLQMNSLKTEDTAVYYCRYVHYSASYGVDAWGQGTTVTVSSASTKGPSVFPLAPCSRSTSESTAALGCLVKDYFPEPVTVSWNSGALTSGVHTFPAVLQSSGLYSLSSVVTVPSSSLGTKTYTCNVDHKPSNTKVDKRVESKYGPPCPPCPAPEFRGGPKVFLFPPKPKDTLMISRTPEVTCVVVDVSQEDPEVQFNWYVDGVEVHNAKTKPREEQFASTYRVVSVLTVLHQDWLNGKEYKCKVSNKGLPSSIEKTISKAKGQPREPQVYTLPPSQKEMTKNQVSLTCLVKGFYPSDIAVEWESNGQPENNYKTTPPVLDSDGSFFLYSKLTVDKSRWQEGNVFSCSVMHEALHNRYTQKSLSLSP
heavy 2: QVQLVQSGAEVKKPGASVKVSCKASGYTFTDYEMHWIRQPPGQGLEWIGAIDGKTPDTAYSQKFKGRVTLTADKSTSTAYMELSSLTSEDTAVYYCTRFYSYTYWGQGTLVTVSSASTKGPSVFPLAPCSRSTSESTAALGCLVKDYFPEPVTVSWNSGALTSGVHTFPAVLQSSGLYSLSSVVTVPSSSLGTQTYTCNVDHKPSNTKVDKRVESKYGPPCPPCPAPEFRGGPKVFLFPPKPKDTLMISRTPEVTCVVVDVSQEDPEVQFNWYVDGVEVHNAKTKPREEQFASTYRVVSVLTVLHQDWLNGKEYKCKVSNKGLPSSIEKTISKAKGQPREPQVYTLPPSQEEMTKNQVSLTCLVKGFYPSDIAVEWESNGQPENNYKTTPPVLDSDGSFFLYSKLTVDKSRWQEGNVFSCSVMHEALHNHYTQESLSLSP
light: DIVMTQSPLSLPVTPGEPASISCRSSQSPVHSNRNTYLHWYQQKPGQAPRLLIYKVSNRFSGVPDRFSGSGSGTDFTLKISRVEAEDVGVYYCYQGTQVPYTFGQGTKLEIKRTVAAPSVFIFPPSDEQLKSGTASVVCLLNNFYPREAKVQWKVDNALQSGNSQESVTEQDSKDSTYSLSSTLTLSKADYEKHKVYACEVTHQGLSSPVTKSFNRGEC
B3: antibody-20: optimized anti-human CD3ε chain and anti-human GPC3 bispecific antibody (antibody)
heavy 1: QVQLVESGGGLVQPGRSLRLSCAASGFTFSNAWMHWVRQAPGKGLEWVAQIKDKSQNYATYYAESVKGRFTISRADSKNSIYLQMNSLKTEDTAVYYCRYVHYSASYGVDAWGQGTTVTVSSASTKGPSVFPLAPCSRSTSESTAALGCLVKDYFPEPVTVSWNSGALTSGVHTFPAVLQSSGLYSLSSVVTVPSSSLGTKTYTCNVDHKPSNTKVDKRVESKYGPPCPPCPAPEFRGGPKVFLFPPKPKDTLMISRTPEVTCVVVDVSQEDPEVQFNWYVDGVEVHNAKTKPREEQFASTYRVVSVLTVLHQDWLNGKEYKCKVSNKGLPSSIEKTISKAKGQPREPQVYTLPPSQKEMTKNQVSLTCLVKGFYPSDIAVEWESNGQPENNYKTTPPVLDSDGSFFLYSKLTVDKSRWQEGNVFSCSVMHEALHNRYTQKSLSLSP
heavy 2: QVQLVQSGAEVKKPGASVKVSCKASGYTFTDYEMHWIRQPPGQGLEWIGAIDGKTPDTAYSQKFKGRVTLTADKSTSTAYMELSSLTSEDTAVYYCTRFYSYTYWGQGTLVTVSSASTKGPSVFPLAPCSRSTSESTAALGCLVKDYFPEPVTVSWNSGALTSGVHTFPAVLQSSGLYSLSSVVTVPSSSLGTQTYTCNVDHKPSNTKVDKRVESKYGPPCPPCPAPEFRGGPKVFLFPPKPKDTLMISRTPEVTCVVVDVSQEDPEVQFNWYVDGVEVHNAKTKPREEQFASTYRVVSVLTVLHQDWLNGKEYKCKVSNKGLPSSIEKTISKAKGQPREPQVYTLPPSQEEMTKNQVSLTCLVKGFYPSDIAVEWESNGQPENNYKTTPPVLDSDGSFFLYSKLTVDKSRWQEGNVFSCSVMHEALHNHYTQESLSLSP
light: DIVMTQSPLSLPVTPGEPASISCRSSQPPVHSNRNTYLHWYQQKPGQAPRLLIYKVSNRFSGVPDRFSGSGSGTDFTLKISRVEAEDVGVYYCYQGTQVPYTFGQGTKLEIKRTVAAPSVFIFPPSDEQLKSGTASVVCLLNNFYPREAKVQWKVDNALQSGNSQESVTEQDSKDSTYSLSSTLTLSKADYEKHKVYACEVTHQGLSSPVTKSFNRGEC

The subject of the data set is extracellular matrix (BD Matrigel). The data set is described as follows: Assessment of the ECM-binding ability (ECL on BD Matrigel). The following applies: fluorescence intensity relative to standard antibody MRAH-G1d/MRAL-k0.
Turning to B1, the “ECM binding ratio (standard = 1)” value turned out to be 47.0.

For B2, the “ECM binding ratio (standard = 1)” value is 15.4.

On to B3, for which the “ECM binding ratio (standard = 1)” value was 15.5.
